# Source: PubChem BioAssay AID2685 (National Center for Advancing Translational Sciences (NCATS), 2010)
# This is one part of the list. Shown are side measurements of this screen, not its main read-out; they come without a call. The list favours compounds with an active or inconclusive main result. Words in brackets tell the shape of the fitted curve; partial curves, single points and poor fits give uncertain potencies.
# Test: qHTS Assay for Lipid Storage Modulators in Drosophila S3 Cells;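 for cell number change: cells counted by Cell Tracker Red CMTPX staining in the red channel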
# Settings: BODIPY lipid droplet fluorescence, 18-24 h; for cell number change: measured here: cell count max response, cells fed with added oleic acid
# Procedure, shortened: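 Drosophila S3 cells loaded with oleic acid (400 uM, as added) and compounds at several concentrations; lipid droplets imaged by 488-nm laser-scanning cytometry, 500–530 nm intensity and object ratio to cell channel. Percent activity normalized to 20 uM Triacsin C.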
# [1] = measured here: lipid fluorescence (Fed channel) AC50, cells fed with added oleic acid
# [2] = measured here: cell number channel AC50, cells fed with added oleic acid
SMILES,cell number change [%],AC50 [1],AC50 [2]
Cn1c(C(C#N)C2=C(Cl)C(=O)N(c3ccccc3)C2=O)nc2ccccc21 (stereo not drawn),12.2,"9.2 µM [falling, partial curve]",
COc1cc(OC)c(C(=O)OCC(=O)c2cc(C)n(CC3CCCO3)c2C)cc1OC (stereo not drawn),41.8,"2.59 µM [rising, full curve]","18.4 µM [rising, single point]"
Cc1ccc(NC(=O)CSc2nnc(CNC(=O)c3ccccc3F)o2)cc1Cl,-9.07,"29.1 µM [falling, single point]",
Clc1ccc(OCCN2CCCCC2)cc1Cl,,"1.64 µM [falling, full curve, poor fit]",
Cc1ccc(-n2c(SCC(=O)Nc3ncc(Cl)cc3Cl)nc3ccccc32)cc1,16.7,"13 µM [falling, partial curve, poor fit]","4.11 µM [falling, single point]"
COC(=O)CSc1nc2sccc2c(=O)n1-c1ccccc1,5.41,,
COc1ccc(NC2(c3ccc(Cl)cc3)C(=O)c3ccccc3C2=O)cc1,,"0.00517 µM [rising, full curve, poor fit]",
Cc1ccc(NC(=O)c2cc(NC(=O)C3CC=CCC3C(=O)O)ccc2N2CCOCC2)cc1 (stereo not drawn),-9.09,,
COc1ccc(/C=C/C(=O)OCC(=O)NCc2ccco2)c(OC)c1,13.3,,
O=c1[nH]c2ccc(S(=O)(=O)N3CCN(c4ccccc4)CC3)cc2[nH]c1=O,4.76,"4.61 µM [falling, single point]",
C#CCOc1ccc2c3c(c(=O)oc2c1)CCCC3,1.76,"2.06 µM [rising, full curve]",
O=C(Oc1ccc2c(c1)OCO2)C12CC3CC(CC(C3)C1)C2,-41.3,"14.6 µM [falling, partial curve]","14.6 µM [falling, single point]"
CCOc1ccc(C(C)NC(=O)c2ccc3c(c2)NC(=O)C(C)S3)cc1OCC (stereo not drawn),3.63,"0.164 µM [rising, full curve, poor fit]",
OC(CN1CCc2ccccc2C1)c1ccccc1 (stereo not drawn),-8.23,"0.00517 µM [falling, full curve, poor fit]","0.00461 µM [falling, full curve, poor fit]"
COc1ccc(-c2csc3ncnc(N4CCN(S(=O)(=O)c5ccc(C)cc5)CC4)c23)cc1,29.3,,
CSc1nc2nccc(-c3ccc(Oc4ccccc4)cc3)n2n1,11.5,"0.13 µM [rising, full curve, poor fit]","0.206 µM [rising, full curve, poor fit]"
CCOC(=O)CSc1nnc(NC(=O)NC(C)C)s1,-15.7,,"0.146 µM [falling, full curve, poor fit]"
Cc1cc(C)n(Cc2cccc(F)c2)c(=O)c1C#N,-11.7,,
Cc1nnc(SCC(=O)Nc2c(Cl)cccc2Cl)[nH]c1=O,36.3,,
COc1ccc(N2CCN(CCNC(=O)Nc3ccc(C)cc3Cl)CC2)cc1,,"6.51 µM [falling, single point]",

# An excerpt of these results, with bars between the fields.
SMILES | cell number change [%] | AC50 [1] | AC50 [2]
Cc1ccc(NC(=O)CSc2nnc(CNC(=O)c3ccccc3F)o2)cc1Cl | -9.07 | 29.1 µM [falling, single point] | 
COc1ccc(NC2(c3ccc(Cl)cc3)C(=O)c3ccccc3C2=O)cc1 |  | 0.00517 µM [rising, full curve, poor fit] | 
COc1ccc(/C=C/C(=O)OCC(=O)NCc2ccco2)c(OC)c1 | 13.3 |  | 

# The results go on.

SMILES,cell number change [%],AC50 [1],AC50 [2]
Cc1cc(C)nc(SCC(=O)N/N=C/c2cc(C)n(-c3ccccc3C)c2C)n1,17.5,"29.1 µM [rising, single point]",
COc1cc(C(=O)N2CCN(S(=O)(=O)c3ccc(C)cc3C)CC2)ccc1OCC(=O)N1CCOCC1,16.5,,
C[n+]1cn(/N=C/c2ccccc2)c2ccccc21,7.82,"3.66 µM [falling, single point]",
CC(=O)c1ccc(OC(=O)C2c3ccccc3Oc3ccccc32)cc1,-30.1,"23.1 µM [falling, partial curve, poor fit]","29.1 µM [falling, single point]"
O=c1cc(CO)oc(CN2CCN(Cc3ccccc3)CC2)c1O,-16.4,"23.1 µM [rising, single point]",
O=C(N/N=C\c1ccc(F)cc1)c1csnn1,116,,
O=[N+]([O-])c1ccccc1S(=O)(=O)N1CCN(Cc2ccccc2)CC1,4.99,"10.3 µM [falling, single point]",
C/C(Cn1nnc([N+](=O)[O-])n1)=N\NC(=O)c1ccc(O)cc1O,119,,"4.11 µM [rising, full curve, poor fit]"
O=C(O)CCc1ccc(-c2ccc(Cl)cc2)n1CC(=O)O,-21.5,"29.1 µM [falling, single point]",
CCC(=O)Nc1cccc(NC(=O)CSc2nnnn2C)c1,21.3,"5.17 µM [rising, partial curve]",
CC(C)CN(CC(C)C)C(=O)COc1ccccc1C(N)=O,33.7,"0.00411 µM [rising, full curve, poor fit]","0.00461 µM [rising, full curve]"
CCOC(=O)/C(N=Nc1ccc(C(=O)O)cc1[N+](=O)[O-])=C(\C)O,4.74,,
COc1ccc(-c2cc(C(F)(F)F)c3c(N)c(C(=O)NCCSC)sc3n2)cc1,89.9,"6.51 µM [falling, single point]","29.1 µM [rising, single point]"
COCCCN1C(=O)c2ccc(C(=O)OCC(=O)N(C)c3ccccc3)cc2C1=O,,,"0.164 µM [rising, single point]"
COc1ccc(S(=O)(=O)Nc2ccccc2OC)cc1NC(=O)CC1CC2CCC1C2 (stereo not drawn),16.7,"2.91 µM [rising, partial curve]",
O=C(CCNS(=O)(=O)c1ccc(Cl)cc1)N1CCCCCC1,33.7,,
Cc1ccc(SCCN2CCN(C)CC2)cc1,-3.15,,
Cc1noc(C)c1CSc1nnc(-c2c[nH]c3ccccc23)n1-c1ccc(Cl)cc1,-10.5,,
Cc1cc(C(=O)OCC(=O)NC(C)C)c(C)o1,4.53,"0.92 µM [falling, full curve]",
Cn1c2c(c(=O)n(C)c1=O)C1c3cc(Cl)ccc3OCC1CO2 (stereo not drawn),31.3,"4.61 µM [falling, single point]","11.6 µM [rising, partial curve, poor fit]"
